B1: ARVCF (protein, UniProt O00192 1-962, looked up)
Splicing regulator ARVCF: MEDCNVHSAASILASVKEQEARFERLTRALEQERRHVALQLERAQQPGMVSGGMGSGQPLPMAWQQLVLQEQSPGSQASLATMPEAPDVLEETVTVEEDPGTPTSHVSIVTSEDGTTRRTETKVTKTVKTVTTRTVRQVPVGPDGLPLLDGGPPLGPFADGALDRHFLLRGGGPVATLSRAYLSSGGGFPEGPEPRDSPSYGSLSRGLGMRPPRAGPLGPGPGDGCFTLPGHREAFPVGPEPGPPGGRSLPERFQAEPYGLEDDTRSLAADDEGGPELEPDYGTATRRRPECGRGLHTRAYEDTADDGGELADERPAFPMVTAPLAQPERGSMGSLDRLVRRSPSVDSARKEPRWRDPELPEVLAMLRHPVDPVKANAAAYLQHLCFENEGVKRRVRQLRGLPLLVALLDHPRAEVRRRACGALRNLSYGRDTDNKAAIRDCGGVPALVRLLRAARDNEVRELVTGTLWNLSSYEPLKMVIIDHGLQTLTHEVIVPHSGWEREPNEDSKPRDAEWTTVFKNTSGCLRNVSSDGAEARRRLRECEGLVDALLHALQSAVGRKDTDNKSVENCVCIMRNLSYHVHKEVPGADRYQEAEPGPLGSAVGSQRRRRDDASCFGGKKAKEEWFHQGKKDGEMDRNFDTLDLPKRTEAAKGFELLYQPEVVRLYLSLLTESRNFNTLEAAAGALQNLSAGNWMWATYIRATVRKERGLPVLVELLQSETDKVVRAVAIALRNLSLDRRNKDLIGSYAMAELVRNVRNAQAPPRPGACLEEDTVVAVLNTIHEIVSDSLDNARSLLQARGVPALVALVASSQSVREAKAASHVLQTVWSYKELRGTLQKDGWTKARFQSAAATAKGPKGALSPGGFDDSTLPLVDKSLEGEKTGSRDVIPMDALGPDGYSTVDRRERRPRGASSAGEASEKEPLKLDPSRKAPPPGPSRPAVRLVDAVGDAKPQPVDSWV
B2: HDHD5 (protein, UniProt Q9BXW7 24-423, looked up)
Haloacid dehalogenase-like …: AAGLQGRPARRCYAVGPAQSPPTFGFLLDIDGVLVRGHRVIPAALKAFRRLVNSQGQLRVPVVFVTNAGNILQHSKAQELSALLGCEVDADQVILSHSPMKLFSEYHEKRMLVSGQGPVMENAQGLGFRNVVTVDELRMAFPLLDMVDLERRLKTTPLPRNDFPRIEGVLLLGEPVRWETSLQLIMDVLLSNGSPGAGLATPPYPHLPVLASNMDLLWMAEAKMPRFGHGTFLLCLETIYQKVTGKELRYEGLMGKPSILTYQYAEDLIRRQAERRGWAAPIRKLYAVGDNPMSDVYGANLFHQYLQKATHDGAPELGAGGTRQQQPSASQSCISILVCTGVYNPRNPQSTEPVLGGGEPPFHGHRDLCFSPGLMEASHVVNDVNEAVQLVFRKEGWALE
B3: TMED9 (protein, UniProt Q9BVK6 38-235, looked up)
Transmembrane emp24 …: LYFHIGETEKKCFIEEIPDETMVIGNYRTQLYDKQREEYQPATPGLGMFVEVKDPEDKVILARQYGSEGRFTFTSHTPGEHQICLHSNSTKFSLFAGGMLRVHLDIQVGEHANDYAEIAAKDKLSELQLRVRQLVEQVEQIQKEQNYQRWREERFRQTSESTNQRVLWWSILQTLILVAIGVWQMRHLKSFFEAKKLV
B4: TOP1 (protein, UniProt P11387 2-765, looked up)
DNA topoisomerase 1: SGDHLHNDSQIEADFRLNDSHKHKDKHKDREHRHKEHKKEKDREKSKHSNSEHKDSEKKHKEKEKTKHKDGSSEKHKDKHKDRDKEKRKEEKVRASGDAKIKKEKENGFSSPPQIKDEPEDDGYFVPPKEDIKPLKRPRDEDDADYKPKKIKTEDTKKEKKRKLEEEEDGKLKKPKNKDKDKKVPEPDNKKKKPKKEEEQKWKWWEEERYPEGIKWKFLEHKGPVFAPPYEPLPENVKFYYDGKVMKLSPKAEEVATFFAKMLDHEYTTKEIFRKNFFKDWRKEMTNEEKNIITNLSKCDFTQMSQYFKAQTEARKQMSKEEKLKIKEENEKLLKEYGFCIMDNHKERIANFKIEPPGLFRGRGNHPKMGMLKRRIMPEDIIINCSKDAKVPSPPPGHKWKEVRHDNKVTWLVSWTENIQGSIKYIMLNPSSRIKGEKDWQKYETARRLKKCVDKIRNQYREDWKSKEMKVRQRAVALYFIDKLALRAGNEKEEGETADTVGCCSLRVEHINLHPELDGQEYVVEFDFLGKDSIRYYNKVPVEKRVFKNLQLFMENKQPEDDLFDRLNTGILNKHLQDLMEGLTAKVFRTYNASITLQQQLKELTAPDENIPAKILSYNRANRAVAILCNHQRAPPKTFEKSMMNLQTKIDAKKEQLADARRDLKSAKADAKVMKDAKTKKVVESKKKAVQRLEEQLMKLEVQATDREENKQIALGTSKLNYLDPRITVAWCKKWGVPIEKIYNKTQREKFAWAIDMADEDYEF
B5: NDUFAF4 (protein, UniProt Q9P032 2-175, looked up)
NADH dehydrogenase …: GALVIRGIRNFNLENRAEREISKMKPSVAPRHPSTNSLLREQISLYPEVKGEIARKDEKLLSFLKDVYVDSKDPVSSLQVKAAETCQEPKEFRLPKDHHFDMINIKSIPKGKISIVEALTLLNNHKLFPETWTAEKIMQEYQLEQKDVNSLLKYFVTFEVEIFPPEDKKAIRSK
B6: TMTC3 (protein, UniProt Q6ZXV5 1-915, looked up)
Protein …: MANINLKEITLIVGVVTACYWNSLFCGFVFDDVSAILDNKDLHPSTPLKTLFQNDFWGTPMSEERSHKSYRPLTVLTFRLNYLLSELKPMSYHLLNMIFHAVVSVIFLKVCKLFLDNKSSVIASLLFAVHPIHTEAVTGVVGRAELLSSIFFLAAFLSYTRSKGPDNSIIWTPIALTVFLVAVATLCKEQGITVVGICCVYEVFIAQGYTLPLLCTTAGQFLRGKGSIPFSMLQTLVKLIVLMFSTLLLVVIRVQVIQSQLPVFTRFDNPAAVSPTPTRQLTFNYLLPVNAWLLLNPSELCCDWTMGTIPLIESLLDIRNLATFTFFCFLGMLGVFSIRYSGDSSKTVLMALCLMALPFIPASNLFFPVGFVVAERVLYVPSMGFCILVAHGWQKISTKSVFKKLSWICLSMVILTHSLKTFHRNWDWESEYTLFMSALKVNKNNAKLWNNVGHALENEKNFERALKYFLQATHVQPDDIGAHMNVGRTYKNLNRTKEAEESYMMAKSLMPQIIPGKKYAARIAPNHLNVYINLANLIRANESRLEEADQLYRQAISMRPDFKQAYISRGELLLKMNKPLKAKEAYLKALELDRNNADLWYNLAIVHIELKEPNEALKKNFNRALELNPKHKLALFNSAIVMQESGEVKLRPEARKRLLSYINEEPLDANGYFNLGMLAMDDKKDNEAEIWMKKAIKLQADFRSALFNLALLYSQTAKELKALPILEELLRYYPDHIKGLILKGDILMNQKKDILGAKKCFERILEMDPSNVQGKHNLCVVYFEEKDLLKAERCLLETLALAPHEEYIQRHLNIVRDKISSSSFIEPIFPTSKISSVEGKKIPTESVKEIRGESRQTQIVKTSDNKSQSKSNKQLGKNGDEETPHKTTKDIKEIEKKRVAALKRLEEIERILNGE
B7: TM9SF4 (protein, UniProt Q92544 24-642, looked up)
Transmembrane 9 superfamily …: FYVPGVAPINFHQNDPVEIKAVKLTSSRTQLPYEYYSLPFCQPSKITYKAENLGEVLRGDRIVNTPFQVLMNSEKKCEVLCSQSNKPVTLTVEQSRLVAERITEDYYVHLIADNLPVATRLELYSNRDSDDKKKEKDVQFEHGYRLGFTDVNKIYLHNHLSFILYYHREDMEEDQEHTYRVVRFEVIPQSIRLEDLKADEKSSCTLPEGTNSSPQEIDPTKENQLYFTYSVHWEESDIKWASRWDTYLTMSDVQIHWFSIINSVVVVFFLSGILSMIIIRTLRKDIANYNKEDDIEDTMEESGWKLVHGDVFRPPQYPMILSSLLGSGIQLFCMILIVIFVAMLGMLSPSSRGALMTTACFLFMFMGVFGGFSAGRLYRTLKGHRWKKGAFCTATLYPGVVFGICFVLNCFIWGKHSSGAVPFPTMVALLCMWFGISLPLVYLGYYFGFRKQPYDNPVRTNQIPRQIPEQRWYMNRFVGILMAGILPFGAMFIELFFIFSAIWENQFYYLFGFLFLVFIILVVSCSQISIVMVYFQLCAEDYRWWWRNFLVSGGSAFYVLVYAIFYFVNKLDIVEFIPSLLYFGYTALMVLSFWLLTGTIGFYAAYMFVRKIYAAVKID

tested on: BAF complex subunits and histone proteins; test: Mass spectrometry proteomics of purified HA-SS18 WT and HA-SS18-SSX1 complexes (Tables 5A-5E); set-up: species or system human; conditions: HA-SS18SSX1_NE_peptides: protein co-purified with HA-SS18-SSX1 BAF complexes from soluble nuclear extract (NE), HEK-293T cells

Total (peptides), 2:
B1
B2
B3
B4
B5
B6
B7

Unique (peptides), 2:
B1
B2
B3
B4
B5
B6
B7

same assay, conditions: HA-SS18WT_NE_peptides: proteins co-purified with HA-SS18 WT from nuclear extract (NE), HEK-293T

Total (peptides), 2:
B5
B7

Unique (peptides), 2:
B5
B7

From patent US20250283871A1, “COMPOSITIONS AND METHODS FOR MODULATING THE INTERACTION BETWEEN SS18-SSX FUSION ONCOPROTEIN AND NUCLEOSOMES” (Dana-Farber Cancer Institute, Inc., priority 2020, published 2025)
